From patent US9067892B2, “Spiroheterocyclic N-oxypiperidines as pesticides” (Syngenta Crop Protection, Inc., priority 2008, dated 2015)
Some results were stated once for a whole list of compounds, not compound by compound.

What was measured:
Assay type in all cases: in vivo
[1] = system: Frankliniella occidentalis (western flower thrips); assay: Example B6: activity against Frankliniella occidentalis; conditions: 400 ppm; bean leaf discs (6 days) or bean plants (14 days); reduction of population vs non treated
[2] = system: Bemisia Tabaci (tobacco white fly); assay: Example B7: Bemisia tabaci, larvicide, contact/feeding; conditions: 200 ppm; bean plants with N-2 nymphs sprayed; three weeks; emerged adults vs non treated
[3] = system: Plutella xylostella (diamond back moth); assay: Example B5: Plutella xylostella, larvicide, feeding/residual contact activity, preventive; conditions: 400 ppm; artificial diet in 24-well MTP; L2 larvae; 5 days; larval mortality, antifeedant, growth regulation
[4] = system: Aphis craccivora (cowpea aphid); assay: Example B9: Aphis craccivora, mixed population, contact/feeding; conditions: 400 ppm; infested pea seedlings sprayed; 6 days; mortality
[5] = system: Aonidiella aurantii (red scale); assay: Example B12: activity against Aonidiella aurantii; conditions: 200 ppm; potato tubers dipped; 6-8 weeks; crawlers of next generation vs non treated

Structure (SMILES)	activity [1]	activity [2]	activity [3]	activity [4]	activity [5]
CCOC(=O)OC1=C(c2c(C)cc(C)cc2C)C(=O)N(C)C12CCN(OC)CC2 [P1.2, Carbonic acid ethyl ester 8-methoxy-1-methyl-2-oxo-3-(2,4,6-trimethyl-phenyl)-1,8-diaza-spiro[4.5]dec-3-en-4-yl ester]	over 80%	over 80%	–	–	–
CCOC(=O)OC1=C(c2c(C)cc(C)cc2C)C(=O)N(COC)C12CCN(OC)CC2 [P1.3]	–	over 80%	over 80%	over 80%	over 80%
CCOCN1C(=O)C(c2c(C)cc(C)cc2C)=C(OC(=O)OCC)C12CCN(OC)CC2 [P1.4]	over 80%	over 80%	–	–	over 80%
CCOC(=O)OC1=C(c2c(C)cc(Br)cc2C)C(=O)N(C)C12CCN(OC)CC2 [P1.12]	–	–	over 80%	–	–
CCOC(=O)OC1=C(c2c(C)cc(C)cc2C)C(=O)N(COCCOC)C12CCN(OC)CC2 [P1.18]	over 80%	–	–	over 80%	–
CON1CCC2(CC1)C(O)=C(c1c(C)cc(C)cc1C)C(=O)N2C [P2.2, 4-hydroxy-8-methoxy-1-methyl-3-(2,4,6-trimethyl-phenyl)-1,8-diaza-spiro[4.5]dec-3-en-2-one]	over 80%	over 80%	–	–	over 80%
CON1CCC2(CC1)C(O)=C(c1cc(C)ccc1C)C(=O)N2CC(F)F [P2.5]	–	–	over 80%	–	–
COCN1C(=O)C(c2c(C)cc(C)cc2C)=C(O)C12CCN(OC)CC2 [P2.6]	–	over 80%	over 80%	–	over 80%
COCCN1C(=O)C(c2c(C)cc(C)cc2C)=C(O)C12CCN(OC)CC2 [P2.7]	over 80%	over 80%	–	–	over 80%
CON1CCC2(CC1)C(O)=C(c1c(C)cc(C)cc1Br)C(=O)N2C [P2.14]	–	–	–	over 80%	–
COCCOCN1C(=O)C(c2c(C)cc(C)cc2C)=C(O)C12CCN(OC)CC2 [P2.19]	–	–	–	over 80%	–
